Some of these results come from one statement about several compounds together.
Key:
Assay type in all cases: in vivo
[1] = tested on: kidney bean stem rot fungus (Sclerotinia sclerotiorum); test: Kidney bean stem rot control test, foliar spray on kidney bean (Test Examples 5, 22, 23); settings: kidney bean NAGAUZURA NATANE, four days after inoculation
[2] = tested on: cucumber corynespora leaf spot fungus (Corynespora cassicola); test: Cucumber corynespora leaf spot control test (Test Examples 26, 27); settings: cucumber SAGAMI HANJIRO, inoculated after one day, 7 days
[3] = tested on: barley scald fungus (Rhynchosporium secalis); test: Barley scald control test, foliar spray on barley (Test Examples 20, 21); settings: 200 ppm foliar spray, barley NISHINOHOSHI, inoculated after 2 days
[4] = tested on: wheat leaf blotch fungus (Septoria tritici); test: Wheat leaf blotch control test, spray before inoculation (Test Examples 6, 9, 10, Comparative Test Example); settings: wheat APOGEE, inoculated after 4 days
[5] = tested on: barley net blotch fungus (Pyrenophora teres); test: Barley net blotch control test, foliar spray on barley (Test Examples 4, 16, 17, 18); settings: barley NISHINOHOSHI, inoculated after 2 days
[6] = tested on: cucumber anthracnose fungus (Colletotrichum lagenarium); test: Cucumber anthracnose control test (Test Examples 28, 29); settings: cucumber SAGAMI HANJIRO, inoculated after one day

Measured: area of lesion spots relative to that on an untreated plant

Cc1cc(-c2ccncc2)ccc1OCc1c(C)cccc1-n1nnn(C)c1=O [Present Compound 109]
≤ 30%: [1]; 200 ppm foliar spray | [1]; 500 ppm foliar spray | [2]; 200 ppm foliar spray | [3] | [4]; 200 ppm foliar spray | [4]; 500 ppm foliar spray | [5]; 200 ppm foliar spray | [5]; 500 ppm foliar spray | [6]; 200 ppm foliar spray

Cc1cc(-c2cc(C(F)(F)F)ccn2)c(C)cc1OCc1c(C)cccc1-n1nnn(C)c1=O [Present Compound 181]
≤ 30%: [1]; 200 ppm foliar spray | [2]; 200 ppm foliar spray | [3] | [4]; 200 ppm foliar spray | [4]; 500 ppm foliar spray | [5]; 200 ppm foliar spray | [5]; 500 ppm foliar spray | [6]; 200 ppm foliar spray

Cc1cc(-c2ccc(C#N)cn2)c(C)cc1OCc1c(C)cccc1-n1nnn(C)c1=O [Present Compound 174]
≤ 30%: [1]; 200 ppm foliar spray | [1]; 500 ppm foliar spray | [2]; 200 ppm foliar spray | [3] | [4]; 200 ppm foliar spray | [4]; 500 ppm foliar spray | [5]; 200 ppm foliar spray | [5]; 500 ppm foliar spray | [6]; 200 ppm foliar spray

Cc1cc(-c2ccccn2)c(Cl)cc1OCc1c(C)cccc1-n1nnn(C)c1=O [Present Compound 213]
≤ 30%: [1]; 200 ppm foliar spray | [1]; 500 ppm foliar spray | [2]; 200 ppm foliar spray | [3] | [4]; 200 ppm foliar spray | [4]; 500 ppm foliar spray | [5]; 200 ppm foliar spray | [5]; 500 ppm foliar spray | [6]; 200 ppm foliar spray

Cc1cccc(-n2nnn(C)c2=O)c1COc1cc(Cl)c(-c2ccccn2)cc1Cl [Present Compound 210]
≤ 30%: [1]; 200 ppm foliar spray | [1]; 500 ppm foliar spray | [2]; 50 ppm foliar spray | [3] | [4]; 500 ppm foliar spray | [5]; 200 ppm foliar spray | [5]; 500 ppm foliar spray | [6]; 200 ppm foliar spray

Cc1cc(-c2ccc(Cl)cn2)c(C)cc1OCc1c(C)cccc1-n1nnn(C)c1=O [Present Compound 162]
≤ 30%: [1]; 200 ppm foliar spray | [1]; 500 ppm foliar spray | [2]; 200 ppm foliar spray | [3] | [4]; 200 ppm foliar spray | [4]; 500 ppm foliar spray | [5]; 200 ppm foliar spray | [5]; 500 ppm foliar spray | [6]; 200 ppm foliar spray

Cc1cc(-c2ncccc2Cl)c(C)cc1OCc1c(C)cccc1-n1nnn(C)c1=O [Present Compound 163]
≤ 30%: [1]; 200 ppm foliar spray | [1]; 500 ppm foliar spray | [2]; 200 ppm foliar spray | [3] | [4]; 200 ppm foliar spray | [4]; 500 ppm foliar spray | [5]; 200 ppm foliar spray | [5]; 500 ppm foliar spray | [6]; 200 ppm foliar spray

CCc1cccc(-n2nnn(C)c2=O)c1COc1ccc(-c2ncccc2Cl)cc1C [Present Compound 2]
≤ 30%: [1]; 200 ppm foliar spray | [1]; 500 ppm foliar spray | [2]; 50 ppm foliar spray | [3] | [4]; 200 ppm foliar spray | [4]; 500 ppm foliar spray | [5]; 200 ppm foliar spray | [5]; 500 ppm foliar spray | [6]; 50 ppm foliar spray

CCOc1ccc(-c2ccc(OCc3c(C)cccc3-n3nnn(C)c3=O)c(C)c2)nn1 [Present Compound 103, 1-{3-methyl-2-[2-methyl-4-(6-ethoxypyridazin-3-yl)-phenoxymethyl]-phenyl}-4-methyl-1,4-dihydrotetrazol-5-one]
≤ 30%: [1]; 200 ppm foliar spray | [1]; 500 ppm foliar spray | [2]; 50 ppm foliar spray | [3] | [4]; 200 ppm foliar spray | [5]; 200 ppm foliar spray | [5]; 500 ppm foliar spray | [6]; 50 ppm foliar spray

Cc1cccc(-c2ccc(OCc3c(C)cccc3-n3nnn(C)c3=O)cc2C)n1 [Present Compound 56]
≤ 30%: [1]; 200 ppm foliar spray | [1]; 500 ppm foliar spray | [2]; 200 ppm foliar spray | [3] | [4]; 200 ppm foliar spray | [4]; 500 ppm foliar spray | [5]; 200 ppm foliar spray | [5]; 500 ppm foliar spray | [6]; 200 ppm foliar spray

Cc1cccc(-c2ccc(OCc3c(C)cccc3-n3nnn(C)c3=O)c(F)c2)n1 [Present Compound 58]
≤ 30%: [1]; 200 ppm foliar spray | [1]; 500 ppm foliar spray | [2]; 200 ppm foliar spray | [3] | [4]; 200 ppm foliar spray | [4]; 500 ppm foliar spray | [5]; 200 ppm foliar spray | [5]; 500 ppm foliar spray | [6]; 200 ppm foliar spray

Cc1cc(-c2ncccc2Cl)ccc1OCc1c(C)cccc1-n1nnn(C)c1=O [Present Compound 23]
≤ 30%: [1]; 200 ppm foliar spray | [1]; 500 ppm foliar spray | [2]; 50 ppm foliar spray | [3] | [4]; 200 ppm foliar spray | [4]; 500 ppm foliar spray | [5]; 200 ppm foliar spray | [5]; 500 ppm foliar spray | [6]; 200 ppm foliar spray

Cc1cc(-c2ncccn2)ccc1OCc1c(Cl)cccc1-n1nnn(C)c1=O [Present Compound 86]
≤ 30%: [1]; 200 ppm foliar spray | [1]; 500 ppm foliar spray | [2]; 200 ppm foliar spray | [3] | [4]; 200 ppm foliar spray | [5]; 200 ppm foliar spray | [5]; 500 ppm foliar spray | [6]; 50 ppm foliar spray

Cc1ccc(-c2ccc(OCc3c(Cl)cccc3-n3nnn(C)c3=O)c(C)c2)nc1 [Present Compound 30]
≤ 30%: [1]; 200 ppm foliar spray | [1]; 500 ppm foliar spray | [2]; 200 ppm foliar spray | [3] | [4]; 200 ppm foliar spray | [4]; 500 ppm foliar spray | [5]; 200 ppm foliar spray | [5]; 500 ppm foliar spray | [6]; 200 ppm foliar spray

Cc1ccc(-c2ccc(OCc3ccccc3-n3nnn(C)c3=O)c(C)c2)nc1 [Present Compound 32]
≤ 30%: [1]; 200 ppm foliar spray | [1]; 500 ppm foliar spray | [2]; 50 ppm foliar spray | [3] | [4]; 200 ppm foliar spray | [4]; 500 ppm foliar spray | [5]; 200 ppm foliar spray | [5]; 500 ppm foliar spray | [6]; 50 ppm foliar spray

Cc1cc(-c2ccnc(Cl)c2)ccc1OCc1c(C)cccc1-n1nnn(C)c1=O [Present Compound 107]
≤ 30%: [1]; 200 ppm foliar spray | [1]; 500 ppm foliar spray | [2]; 200 ppm foliar spray | [3] | [4]; 200 ppm foliar spray | [4]; 500 ppm foliar spray | [5]; 200 ppm foliar spray | [5]; 500 ppm foliar spray | [6]; 200 ppm foliar spray
